Here are results for one molecule from patent US20260174769A1, “MACROCYCLIC COMPOUNDS AND METHODS OF USE” (AMGEN INC., priority 2022, published 2026).

The test system of this experiment is phospho-ERK1/2 in PANC 04.03 tumors. The experiment can be described thus: Tumor Pharmacodynamic Assay (p-ERK inhibition in PANC 04.03 tumor-bearing mice). The conditions noted are these: PANC 04.03 tumor-bearing female athymic nude mice; single oral dose 100 mg/kg; tumors harvested 2 hours later; p-ERK1/2 normalized to total ERK1/2, relative to vehicle group; tested form: 2,2,2-trifluoroacetate; mixture of the. How it is done:
Tumor Pharmacodynamic Assays
Inhibitor pharmacodynamic effects were assessed in PANC 04.03 tumor-bearing mice. PANC 04.03 tumor cells (5.0E+06 cells) were injected subcutaneously into the flank of female athymic nude mice in a mixture with Matrigel (BD Bioscience). Mice received a single oral dose of either vehicle or inhibitors (100 mg/kg) when the average tumor size reached ˜300-600 mm^3 (n=3/group) and harvested 2 hours later. Tumor samples were collected, snap frozen, and processed for analysis by pulverizing with a cryoPREP® Dry Impactor (Covaris). Pulverized samples were resuspended in RIPA lysis buffer containing protease and phosphatase inhibitors and homogenized. Cleared lysates were analyzed using phospho-ERK1/2 and total ERK1/2 whole cell lysate kits (Meso Scale Discovery) according to the manufacturer's protocol. Phospho-ERK1/2 signal was normalized to total ERK1/2 signal for a given sample, and percent inhibition of p-ERK was calculated relative to the vehicle group.

Structures are written as SMILES. The match of structure and compound is tentative.

As to `OC1CC2COCCCCc3c(Cl)cc4[nH]ncc4c3-c3ncc4c(nc(OC[C@@]56CCCN5C[C@H](F)C6)nc4c3F)N(C1)C2` (single isomer, unassigned), the “p-ERK (% inhibition) 2 hr.” value came out at 83%.
